Experiment: Long-term: hormone and metabolic blood parameters
Type: in vivo, male DIO Sprague Dawley rats
Source text: Male DIO Sprague Dawley rats (n = 24) were generated as outlined above and were 644.5 g (50 g) at the start of drug treatment. The animals were divided into three treatment groups (n = 8 each) balanced for body weight, body weight gain during baseline, food intake, and Lee Index [body weight^(1/3)/snout to anus length (mm)] ([Lee, 1929]; [Simson and Gold, 1982]) as an indicator of adiposity (Figure 2). In a subset of the animals (n = 5 per group, balanced for prior mentioned criteria), Mini-Mitter transponders (PDT-4000 E-Mitter, Respironics Inc.) were implanted posterior to the left scapula at least 9 days prior to start of baseline measures to ensure sufficient recovery time. Body temperature and gross motor activity were continuously recorded via these transponders. […] High fat diet and water were provided ad libitum and intake was recorded with daily hopper and water bottle weighs at time of body weight assessment just prior to drug administration. Blood samples were taken at start of intervention by tail vein bleeding and via cardiac puncture under an isoflurane induced surgical plane of anesthesia at euthanasia. Animals were euthanized on treatment day 29, 4 h after receiving a dose of their assigned treatment, via decapitation under isoflurane anesthesia immediately following blood draw. Body composition was assessed on carcasses.
Commercially available enzyme-linked immunosorbent assays (ELISA) were used for quantitative assessment of leptin (MilliporeSigma, Burlington, MA) and insulin (MilliporeSigma, Burlington, MA); all with intra-assay CV < 4%. Levels of sodium, potassium, glucose, cholesterol (total and HDL), triglycerides, alanine transaminase (ALT), and aspartate transaminase (AST) were determined in serum obtained at sacrifice by cardiac puncture on a Modular P chemistry analyzer (Roche Diagnostics, Germany) at the University of Washington NORC Core, Seattle, WA.

**Q.** With oxytocin [OXT] as the substance, how does the “plasma leptin change pre- vs. post-treatment” value (OXT, ELISA, 95% CI −10.6 to −4.49, p < 0.0001) read?
**A.** -7.53 ng/mL

**Q.** What about the “serum triglycerides, difference vs vehicle” value (OXT, post-treatment, 95% CI −18.2 to −101.5, p = 0.004) of the same substance?
**A.** -59.9 mg/dL

**Q.** What about the “Insulin, post-treatment” value (after 28-day Tx, plasma, ELISA, n = 8, Mean ± SD, ANOVA p 0.231) of the same substance?
**A.** 4.42.8 μg/L

**Q.** What about the “Leptin, post-treatment” value (after 28-day Tx, plasma, ELISA, n = 8, Mean ± SD, ANOVA p 0.353) of the same substance?
**A.** 24.410.4 μg/L

**Q.** And the “Glucose, post-treatment” value (after 28-day Tx, serum, n = 8, Mean ± SD, ANOVA p 0.231)?
**A.** 10.11.2 mmol/L

**Q.** And the “HDL, post-treatment” value (after 28-day Tx, serum, n = 8, Mean ± SD, ANOVA p 0.492)?
**A.** 0.70.1 mg/dL

**Q.** What about the “Cholest, post-treatment” value (after 28-day Tx, serum, n = 8, Mean ± SD, ANOVA p 0.535) of the same substance?
**A.** 2.20.2 mmol/L

— publication PMC8502973 (Frontiers in Physiology, 2021)
